Data published in paper PMC8102515.
These are yes or no findings as the source states them, for the method shown. Some entries that bind do so weakly or less than the wild type.

Tests used:
[1] = target: T1, human peroxiredoxin 6 (human), P30041; test: SEC; Sephadex G-100 column (44 ml bed volume), hPrdx6 1 mg/ml, 10 mM Tris-HCl buffer pH 7.0; void volume by blue dextran; both purified; details: remark: other sources report otherwise
T1 chain: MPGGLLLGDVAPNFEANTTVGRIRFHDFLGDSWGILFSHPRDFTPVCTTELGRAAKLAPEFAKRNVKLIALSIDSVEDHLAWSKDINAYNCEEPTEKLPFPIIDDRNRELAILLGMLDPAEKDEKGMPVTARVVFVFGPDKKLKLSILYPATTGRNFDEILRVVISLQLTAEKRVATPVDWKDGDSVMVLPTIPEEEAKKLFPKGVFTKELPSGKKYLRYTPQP

[2] = target: T1, human peroxiredoxin 6 (human), P30041; test: SEC; Sephadex G-100 column (44 ml bed volume), hPrdx6 1 mg/ml, 10 mM sodium acetate buffer pH 4.0; void volume by blue dextran; both purified; details: remark: other sources report otherwise

binding [1]: binds
binding [2]: binds
B1: human peroxiredoxin 6, P30041 1-224 (enzyme)
chain: T1 chain
